Library screen at single concentrations

Chains of the proteins cited; added tags and fusions are not shown.
UniProt P9WPC5, whole entry: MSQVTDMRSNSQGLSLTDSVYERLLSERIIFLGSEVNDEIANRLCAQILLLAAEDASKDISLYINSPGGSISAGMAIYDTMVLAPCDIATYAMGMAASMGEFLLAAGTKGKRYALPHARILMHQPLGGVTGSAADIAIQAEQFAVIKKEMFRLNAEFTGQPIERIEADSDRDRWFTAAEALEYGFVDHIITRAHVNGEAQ
UniProt P9WPC3, whole entry partner: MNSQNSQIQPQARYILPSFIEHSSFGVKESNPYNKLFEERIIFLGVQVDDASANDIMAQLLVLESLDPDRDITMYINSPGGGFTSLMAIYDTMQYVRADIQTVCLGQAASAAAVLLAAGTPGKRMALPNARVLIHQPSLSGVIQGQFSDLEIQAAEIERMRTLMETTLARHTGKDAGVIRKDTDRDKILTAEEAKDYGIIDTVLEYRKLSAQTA
UniProt I6X8D2, whole entry: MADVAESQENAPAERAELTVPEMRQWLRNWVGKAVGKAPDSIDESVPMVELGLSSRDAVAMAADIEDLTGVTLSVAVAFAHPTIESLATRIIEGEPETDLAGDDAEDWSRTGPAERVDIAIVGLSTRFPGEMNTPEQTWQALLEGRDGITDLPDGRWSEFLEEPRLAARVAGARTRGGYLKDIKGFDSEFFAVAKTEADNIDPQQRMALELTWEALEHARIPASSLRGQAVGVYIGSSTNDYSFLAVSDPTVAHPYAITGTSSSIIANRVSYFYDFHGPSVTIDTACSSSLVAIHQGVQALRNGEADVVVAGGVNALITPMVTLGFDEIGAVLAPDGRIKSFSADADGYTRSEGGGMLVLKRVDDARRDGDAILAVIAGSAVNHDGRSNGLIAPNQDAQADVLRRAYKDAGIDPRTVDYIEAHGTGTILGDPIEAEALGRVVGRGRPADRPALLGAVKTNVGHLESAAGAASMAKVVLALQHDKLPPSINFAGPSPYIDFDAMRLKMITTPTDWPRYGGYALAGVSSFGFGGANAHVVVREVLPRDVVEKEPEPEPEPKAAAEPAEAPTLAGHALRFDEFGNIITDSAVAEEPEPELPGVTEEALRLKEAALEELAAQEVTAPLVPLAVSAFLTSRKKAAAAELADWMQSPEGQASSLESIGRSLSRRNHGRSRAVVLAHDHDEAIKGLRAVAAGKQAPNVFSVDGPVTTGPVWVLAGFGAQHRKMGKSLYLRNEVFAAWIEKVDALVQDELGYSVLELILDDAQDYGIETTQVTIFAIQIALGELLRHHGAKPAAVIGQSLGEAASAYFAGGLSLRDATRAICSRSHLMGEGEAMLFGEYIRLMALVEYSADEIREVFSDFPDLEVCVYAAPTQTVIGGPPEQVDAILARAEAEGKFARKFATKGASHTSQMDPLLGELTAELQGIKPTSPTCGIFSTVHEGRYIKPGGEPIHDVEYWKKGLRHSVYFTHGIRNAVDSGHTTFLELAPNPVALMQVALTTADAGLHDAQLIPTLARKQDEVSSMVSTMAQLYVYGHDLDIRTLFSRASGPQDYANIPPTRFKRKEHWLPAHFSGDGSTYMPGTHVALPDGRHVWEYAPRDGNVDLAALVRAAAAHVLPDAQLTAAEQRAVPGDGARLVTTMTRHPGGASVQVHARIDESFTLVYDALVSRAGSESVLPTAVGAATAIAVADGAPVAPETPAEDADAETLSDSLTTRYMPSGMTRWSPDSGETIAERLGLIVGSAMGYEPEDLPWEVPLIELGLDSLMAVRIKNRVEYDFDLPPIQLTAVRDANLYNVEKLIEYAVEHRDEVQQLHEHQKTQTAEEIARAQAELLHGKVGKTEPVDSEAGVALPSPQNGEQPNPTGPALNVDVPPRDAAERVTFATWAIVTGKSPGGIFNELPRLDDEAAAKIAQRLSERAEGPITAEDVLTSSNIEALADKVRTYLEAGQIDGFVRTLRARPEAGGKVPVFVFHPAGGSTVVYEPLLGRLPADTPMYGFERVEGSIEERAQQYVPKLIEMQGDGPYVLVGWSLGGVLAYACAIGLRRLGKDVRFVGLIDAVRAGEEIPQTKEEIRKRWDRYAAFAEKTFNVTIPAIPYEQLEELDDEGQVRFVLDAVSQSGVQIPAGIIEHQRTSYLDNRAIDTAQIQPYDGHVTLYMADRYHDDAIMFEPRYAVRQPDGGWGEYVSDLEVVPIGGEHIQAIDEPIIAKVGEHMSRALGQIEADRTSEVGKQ

From ChEMBL document CHEMBL3988442, “University of Dundee, Small-Polar-MMV Screening Library” (2021).

Values are the deposited “Percent Effect”, in %. How 0% and 100% were set is not recorded. Most values in the screen are low, and negative values occur. This is an unselected part of the compounds tested. A dash means the value is not listed here; it may have been measured.

ClpP1P2: 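ClpP1P2, Mycobacterium tuberculosis (UniProt P9WPC5 and UniProt P9WPC3). Protease assay of ClpP1P2, read by the AMC dye that it sets free. Concentration: 50 µM. Higher reads as stronger inhibition, judged from the few compounds that gave an IC50. Most other retested compounds had strongly negative values. Size under these conditions: about 69,000 compounds, about 10 of them at 50% or above in at least one test.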
Pks13 thioesterase: 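Polyketide synthase Pks13, Mycobacterium tuberculosis (UniProt I6X8D2). Enzyme assay of the thioesterase domain of polyketide synthase 13; the read-out is not stated. Tested at 30 µM. Higher reads as stronger inhibition (inferred from which compounds were picked for retests). Size under these conditions: about 67,000 compounds, about 300 of them at 50% or above in at least one test.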

compound | ClpP1P2 | Pks13 thioesterase
CCCc1noc(CN2CCOCC2C)n1 (configuration not stated) | -7.769% | -11.36%
Cc1ccc(N2CC3(COCCN(Cc4ccncc4)C3)OCC2=O)s1 (configuration not stated) | -1.983% | -9.398%
CN1C(=O)CC2(CCN(S(=O)(=O)C3CC3)CC2)c2ccccc21 | 8.269% | -23.48%
C=C(C)COCCNC(=O)Nc1cccc(Cn2nc(C)nc2C)c1 | -0.6928% | -14.23%
O=C(O)c1ccc(N2CCC(Cc3ccccc3)CC2)nn1 | 10.82% | 24.78%
Cc1nc(C)n(CC2CCCN2Cc2cn(-c3ccccc3)nn2)n1 (configuration not stated) | -6.401% | -11.31%
CN(C)C(=O)N1CCN(c2ccc(Cl)nn2)C(=O)C1 | -6.963% | -15.91%
CC(C)CCC1=NC2(CCN(C(=O)CN3CCCC3=O)CC2)C(=O)N1 | 2.7% | -19.76%
CC(NC(=O)NCCn1ccnc1)c1ccc2c(c1)CCC(=O)N2 (configuration not stated) | -8.198% | -46.37%
O=C(O)c1cc(-c2ccncc2)cc(S(=O)(=O)N2CCSCC2)c1 | -11.15% | -9.366%
CC(C#N)(NC(=O)c1ccc(C#N)cc1)C1CC1 (configuration not stated) | 1.653% | -4.196%
O=C(Cn1ccc(=O)[nH]c1=O)Nc1ccccc1F | 9.841% | 9.628%
Cc1cnn(CC2CCCN2C(=O)CCc2cscn2)c1 (configuration not stated) | -26.33% | -14.61%
CNc1cncc(C2CCCN2C(=O)Cn2c(=O)oc3ccccc32)n1 (configuration not stated) | -21.54% | 130.5%
Cc1nn2c(NC(=O)CSc3ncccn3)csc2nc1=O | -3.791% | -7.132%
Cc1ccccc1C(C(=O)N(C)CCc1cnn(C)c1)N(C)C (configuration not stated) | -2.508% | -17.54%
COc1cc(-c2cc(=O)[nH]cn2)cc(OC)c1OC | -3.254% | -0.4056%
Cn1cccc1C(=O)N1CCN(CC2CC2)c2ncccc2C1 | -0.4376% | -14.33%
O=C1CO[C@@H]2CN(Cc3cccs3)C[C@H]2N1Cc1ccncc1 | 10.43% | -20.35%
CC(C)N1Cc2cccc(NCC(=O)N(C)C3CCCCC3)c2C1 | -3.49% | 81.86%
CCCN1CCC(NC(=O)c2csc(C)c2C)CC1 | -0.297% | -22.35%
Cc1ccc(CN2CCOC3(CCCN(C(=O)c4ccco4)C3)C2)s1 (configuration not stated) | 7.707% | -19.55%
Cc1cc(NCCN)nc2ccccc12 | 4.479% | 2.322%
CCCC(C)C(=O)N1CCC(n2cccc2C(=O)OC)CC1 (configuration not stated) | -2.132% | -8.05%
CC(C)(C)c1ncc2c(n1)CN(c1cc(NCCO)nc(N)n1)C2 | -5.682% | -3.243%
CCC(CO)NCc1ccc(-c2ccc(Cl)cc2)o1 (configuration not stated) | -1.507% | -1.146%
CC(=O)NS(=O)(=O)c1ccc2c(c1)N(C)CCC2 | 5.608% | -
CNS(=O)(=O)Cc1cccc(CNc2ccc(Cl)cn2)c1 | -9.118% | -21.89%
Cc1cc(C)n(CC2CN(c3cnc4ccccc4n3)CCO2)n1 (configuration not stated) | -136.6% | 10.33%
Cc1nnsc1C(=O)NCc1cccnc1N(C)C | -5.347% | -11.22%
O=c1[nH]c2c(c(=O)n1C1CCCCC1)CCC2Nc1ccccn1 (configuration not stated) | -11.79% | -23.1%
Fc1ccc(CN2CC[C@H]3O[C@@H](COCc4cccnc4)CC[C@H]32)cc1 | 6.672% | -13.31%
Cc1cnn(C2CCCN(C(=O)c3cc[nH]n3)C2)c1 (configuration not stated) | -1.949% | -45.35%
NC(=O)CCN(CC(=O)NCc1ccccn1)c1ccc(F)cc1 | -7.62% | -8.544%
Cc1nc2c(N3CCN(CCO)CC3)nc(N)nc2n1C | -4.929% | -11.63%
CC1CCCN(Cc2coc(-c3cccc(F)c3)n2)C1 (configuration not stated) | 1.617% | -8.204%
COc1ccc2c(c1)CC(C1CCOCC1)N(C(=O)c1cnccn1)C2 (configuration not stated) | -14.17% | 10.72%
CN(C)CCN1CC[C@@H]2[C@@H]1CCN2C(=O)c1cccc(Cl)c1 | -1.715% | 10.17%
Cc1nc(C2CCCN2C(=O)CCCOc2cccc(F)c2)no1 (configuration not stated) | 1.606% | -25.33%
c1ccc(CO[C@@H]2CN(Cc3ccoc3)[C@@H]3COC[C@@H]32)nc1 | 16.91% | -24.04%
O=C(CCn1ccc2ncccc2c1=O)N1CCCC1 | -4.356% | 9.724%
O=C(Cn1ccnc1)N1C[C@@H]2CC[C@H](Oc3ccccc3)[C@@H]2C1 | 11.71% | -71.84%
O=C1CC[C@H]2[C@H](CCN2C(=O)c2ccc[nH]2)N1CCN1CCOCC1 | -0.9577% | -32.95%
CN(C)C(=O)COCC1CN(Cc2ccoc2)Cc2nnn(C)c21 (configuration not stated) | 3.594% | -10.2%
Cc1ccc(C2CSCCN2C(=O)c2ccccn2)cc1 (configuration not stated) | -5.344% | -6.955%
CC(O)CNc1ccc(C#N)cc1C(F)(F)F (configuration not stated) | -11.14% | -21.09%
COCCC(=O)N1Cc2nc3c(C)c(-c4cccs4)nn3c(O)c2C1 | -28.14% | 9.432%
CC(C)[C@H]1COC(=O)N1Cc1nccn1C1CC1 | 7.754% | -29.6%
O=C(Nc1nc2c(s1)CN(S(=O)(=O)C1CC1)CC2)C1CC1 | -9.958% | 33.48%
COc1ccc(CC(=O)NC2CCN(CC(F)F)CC2)cc1OC | -24.41% | -6.613%
COCc1nc(CNc2cc(C)nc(N3CCCCC3)n2)no1 | 18.01% | -15.67%
O=C(O)c1cc(-n2cc3c(n2)CCC3)cc(S(=O)(=O)N2CCOCC2)c1 | -12.21% | -9.333%
Cc1ccccc1C(N)c1ccncc1 (configuration not stated) | -14.43% | -0.7611%
CCCc1noc(CN2CCC(c3ccnn3CCO)CC2)n1 | -23.56% | -23.13%
COc1ccccc1C1(CNc2cc(C(=O)N(C)C)ccn2)CC1 | 4.837% | -9.117%
Cc1cccc(OC2CN(C(=O)c3cnn(C)c3)C2)c1 | -6.163% | 11.96%
CC(C)c1cc(NC(=O)c2ccc(C(=O)NC(C)(C)C)cc2)[nH]n1 | 8.507% | -15.38%
CC(=O)N1CCOC[C@H](Oc2ccc(C(F)(F)F)cc2)C1 | -13.23% | 8.822%
CCC(C)(NCC(=O)OC)c1nc(C)cs1 (configuration not stated) | -2.298% | -26.3%
Cc1noc(C2CCCN(C(=O)c3cc(Cl)ccc3F)C2)n1 (configuration not stated) | -13.21% | 4.619%
Cc1ccc(N2CCC(Nc3ccc4nnc(C)n4n3)CC2)nc1 | -4.128% | -21.52%
Cc1ccc(C(=O)N2CCc3c(COCC4CC4)cncc3C2)o1 | 3.344% | -22.5%
Cc1nc(CN2CCC(CNC(=O)Nc3ccccn3)CC2)oc1C | 2.294% | -8.582%
O=C(c1cnccn1)N1CCN2C[C@H](OCc3ccccc3)C[C@H]2C1 | -7.222% | -24.31%
O=C1N(Cc2ccccn2)C[C@H]2CN(C3CCC3)CCN12 | -10.11% | -
CC(C)(C)c1nnc(CN2CCOC(Cn3cccn3)C2)o1 (configuration not stated) | -0.2697% | -25.12%
CNC(=O)[C@H]1C[C@@H]2CN(C(=O)c3cccnc3)C[C@@H]2N1S(C)(=O)=O | -12.42% | -21.6%
O=C(O)CSC1CCc2ccccc2NC1=O (configuration not stated) | -4.87% | -26.14%
CC(C)c1cccc(NC(=O)N2CC(N(C)C)C2)c1 | -6.309% | -9.617%
Cc1ccc(-c2noc(CCC3CCN(C)CC3)n2)nn1 | -1.341% | -24.85%
CC(=O)N1N=C(c2ccco2)OC1C(=O)NCC(C)C (configuration not stated) | -7.395% | 52.46%
Cc1ccc(CN2C[C@H](OCC3CCN(C)CC3)[C@H]3COC[C@H]32)o1 | 5.014% | -4.395%